The values that follow come from article doi:10.1101/2020.08.16.252940.

By UniProt entry, the sequences of proteins in these tests, tags left out. Residues count along the entry.
UniProt Q9NZQ7, residues 19-290: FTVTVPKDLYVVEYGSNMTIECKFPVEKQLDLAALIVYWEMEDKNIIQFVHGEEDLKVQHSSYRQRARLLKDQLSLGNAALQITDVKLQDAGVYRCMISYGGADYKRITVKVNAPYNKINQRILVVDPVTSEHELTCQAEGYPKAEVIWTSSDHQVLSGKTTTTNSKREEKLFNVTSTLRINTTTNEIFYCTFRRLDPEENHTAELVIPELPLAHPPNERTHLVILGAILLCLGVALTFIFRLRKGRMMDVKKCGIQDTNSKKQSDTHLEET

The target of the assay is T1, Vitamin-D receptor (VDR) (human (endogenous in SKOV-3, OVCAR-8, DAOY, D283)) (UniProt P11473).
T1 sequence: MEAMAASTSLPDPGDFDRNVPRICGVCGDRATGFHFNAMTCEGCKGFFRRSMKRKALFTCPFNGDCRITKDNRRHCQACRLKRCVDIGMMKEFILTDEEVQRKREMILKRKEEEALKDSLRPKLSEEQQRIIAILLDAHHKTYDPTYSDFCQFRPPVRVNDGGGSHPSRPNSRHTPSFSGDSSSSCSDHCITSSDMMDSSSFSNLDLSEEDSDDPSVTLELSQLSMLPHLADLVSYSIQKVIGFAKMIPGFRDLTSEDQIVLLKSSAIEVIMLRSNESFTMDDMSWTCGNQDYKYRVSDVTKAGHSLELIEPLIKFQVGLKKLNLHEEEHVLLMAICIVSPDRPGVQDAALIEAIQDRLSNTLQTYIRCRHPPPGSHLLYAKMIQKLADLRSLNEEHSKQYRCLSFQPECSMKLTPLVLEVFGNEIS
The assay can be described thus: co-IP.

No constants are given. Whether binding was seen depends on the method and setting. Binding seen in cells or lysates may run through a third protein. Some results given as binding are weak or reduced against the parent protein; the word gives no strength.

On to “Programmed death receptor ligand (PD-L1) (from UniProt Q9NZQ7 19-290)”, for which the binding result is “binds”.
